Assay results: patent publication US9375000B2, “Pesticidal arylpyrrolidines” (Bayer Intellectual Property GmbH, priority 2011, dated 2016)
Some of these results come from one statement about several compounds together.

Tests used:
Type in all cases: in vivo
Ctenocephalides felis = assay: Test against Ctenocephalides felis (CTECFE), blood feeding; conditions: application rate 100 ppm in cattle blood; after 2 days
Description: (§1) Solvent: dimethyl sulfoxide
To produce a suitable preparation of active compound, 10 mg of active compound are dissolved in 0.5 ml solvent, and the concentrate is diluted with cattle blood to the desired concentration. Approximately 20 adult unfed (Ctenocepahlides felis) are placed in flea chambers. The blood chamber, sealed with parafilm on the bottom, are filled with cattle blood supplied with compound solution and placed on top of the flea chamber, so that the fleas are able to suck the blood. The blood chamber is heated to 37° C. whereas the flea chamber is kept at room temperature.
After 2 days mortality in % is determined. 100% means that all the fleas have been killed; 0% means that none of the fleas have been killed.

[1] = system: Lucilia cuprina 1st instar larvae; assay: Test against Lucilia cuprina larvae; conditions: application rate 100 ppm; after 48 hrs
Description: as §1
10 mg active compound are dissolve in 0.5 mL dimethyl sulfoxide. Serial dilutions are made to obtain the desired rates.
Approximately 20 Lucilia cuprina 1st instar larvae are transferred into a test tube containing 1 cm^3 of minced horse meat and 0.5 ml aqueous dilution of test compound. After 48 hrs percentage of larval mortality are recorded. 100% efficacy=all larvae are killed, […].

[2] = system: adult engorged female ticks (Boophilus microplus); assay: Boophilus microplus (injection); conditions: application rate 20 μg/animal, after 7 days
Musca domestica = assay: Test against Musca domestica; conditions: application rate 100 ppm; after 2 days
Description: as §1
To produce a suitable preparation of active compound, 10 mg of active compound are dissolved in 0.5 ml solvent, and the concentrate is diluted with water to the desired concentration. Prior to the assay, a piece of kitchen sponge is soaked with a mixture of sugar and compound solution and placed into a container. 10 adults (Musca domestica) are placed into the container and closed with a perforated lid. After 2 days mortality in % is determined. 100% means that all the flies have been killed; 0% means that none of the flies have been killed.

[3] = system: green peach aphids (Myzus persicae); assay: Myzus persicae spray test (MYZUPE); conditions: active compound concentration 20 ppm; after 6 days
Description: Unless not mentioned otherwise, the test solutions were prepared as follows:
Solvent: 3 parts by weight Dimethylformamide
Emulsifier: 1 part by weight Polyoxyethylene alkyl phenyl ether
In order to make an appropriate formulation of an active compound, 1 part by weight of the active compound is mixed with the above mentioned amount of solvent and emulsifier and the mixture is diluted with water to a prescribed concentration. Ammonium salt or ammonium salt and penetration enhancer in a dosage of 1000 ppm are added to the desired concentration if necessary.
1 day before treatment, green peach aphids (Myzus persicae) are inoculated onto the testing plants, about 50 heads per leaf, 100 for 1 pot. A paper label is placed on each pot. Solutions are sprayed directly onto both insects and plants. After drying, the pots are placed in the greenhouse at 20° C.-25° C. After 6 days mortality in % is determined. An insecticidal activity of 100% means that all aphids were killed, whereas an insecticidal activity of 0% means that no aphid was killed.

[4] = system: adult engorged female Boophilus microplus ticks; assay: Test against Boophilus microplus (dip); conditions: after 7 days
Description: as §1
To produce a suitable preparation of active compound, 10 mg of active compound are dissolved in 0.5 ml solvent, and the concentrate is diluted with water to the desired concentration. Eight to ten adult engorged female Boophilus microplus ticks are placed in perforated plastic beakers and immersed in aqueous compound solution for one minute. Ticks are transferred to a filter paper in a plastic tray. Egg deposition of fertile eggs is monitored after. After 7 days mortality in % is determined. 100% means that all the ticks have been killed; 0% means that none of the ticks have been killed.

## CCC(=O)NCc1ccc(N2CCC(c3cc(Cl)c(F)c(Cl)c3F)(C(F)(F)F)C2O)nc1C(F)(F)F (mixture of isomers) [A3-211]
Ctenocephalides felis
  activity (mortality): 100%
[1]
  activity (larval mortality): 100%
[2]
  activity (mortality; infertile eggs): 100%
Musca domestica
  activity (mortality): 100%
[3]
  insecticidal activity (mortality): 98%
[4]; application rate 100 ppm
  activity (mortality): 100%

## O=C(NCc1ccc(N2CCC(c3ccc(F)c(C(F)(F)F)c3)(C(F)(F)F)C2O)nc1C(F)(F)F)C1CC1 (mixture of isomers) [A3-236]
Ctenocephalides felis
  activity (mortality): 100%
[1]
  activity (larval mortality): 100%
[2]
  activity (mortality; infertile eggs): 100%
Musca domestica
  activity (mortality): 100%
[3]
  insecticidal activity (mortality): 98%
[4]; application rate 100 ppm
  activity (mortality): 100%

## CCC(=O)NCc1ccc(N2CCC(c3cc(F)cc(C(F)(F)F)c3)(C(F)(F)F)C2O)nc1C(F)(F)F (mixture of isomers) [A3-244]
Ctenocephalides felis
  activity (mortality): 100%
[1]
  activity (larval mortality): 100%
[2]
  activity (mortality; infertile eggs): 100%
Musca domestica
  activity (mortality): 100%
[3]
  insecticidal activity (mortality): 98%
[4]; application rate 100 ppm
  activity (mortality): 100%

## O=C(NCc1ccc(N2CCC(c3cc(F)c(F)c(F)c3)(C(F)(F)F)C2O)cc1C(F)(F)F)C1CC1 (stereo not shown) [A1-264]
Ctenocephalides felis
  activity (mortality): 100%
[1]
  activity (larval mortality): 100%
[2]
  activity (mortality; infertile eggs): 100%
Musca domestica
  activity (mortality): 100%
[3]
  insecticidal activity (mortality): 90%
[4]; application rate 100 ppm
  activity (mortality): 100%

## CCC(=O)NCc1ccc(N2CCC(c3cc(F)cc(C(F)(F)F)c3)(C(F)(F)F)C2O)cc1C(F)(F)F (stereo not shown) [A1-316]
Ctenocephalides felis
  activity (mortality): 100%
[1]
  activity (larval mortality): 100%
[2]
  activity (mortality; infertile eggs): 100%
Musca domestica
  activity (mortality): 100%
[4]; application rate 100 ppm
  activity (mortality): 100%

## CCC(=O)NCc1ccc(N2CCC(c3cc(Cl)c(Cl)c(Cl)c3)(C(F)(F)F)C2O)cc1 (stereo not shown) [A1-384]
Ctenocephalides felis
  activity (mortality): 100%
[1]
  activity (larval mortality): 100%
[2]
  activity (mortality; infertile eggs): 100%
[3]
  insecticidal activity (mortality): 98%
[4]; application rate 100 ppm
  activity (mortality): 100%

## CC(=O)NCc1ccc(N2CCC(c3cc(Cl)cc(Cl)c3F)(C(F)(F)F)C2O)cc1C(F)(F)F (stereo not shown) [A1-405]
Ctenocephalides felis
  activity (mortality): 100%
[1]
  activity (larval mortality): 100%
[2]
  activity (mortality; infertile eggs): 100%
Musca domestica
  activity (mortality): 100%
[4]; application rate 100 ppm
  activity (mortality): 100%

## CCC(=O)NCc1ccc(N2CCC(c3cc(Cl)cc(Cl)c3F)(C(F)(F)F)C2O)cc1C(F)(F)F (stereo not shown) [A1-406]
Ctenocephalides felis
  activity (mortality): 100%
[1]
  activity (larval mortality): 100%
[2]
  activity (mortality; infertile eggs): 100%
Musca domestica
  activity (mortality): 100%
[4]; application rate 100 ppm
  activity (mortality): 100%

## CCCC(=O)NCc1ccc(N2CCC(c3cc(Cl)c(Cl)c(Cl)c3)(C(F)(F)F)C2O)nc1C(F)(F)F (stereo not shown) [A3-14]
[1]
  activity (larval mortality): 100%
[2]
  activity (mortality; infertile eggs): 100%
Musca domestica
  activity (mortality): 100%
[3]
  insecticidal activity (mortality): 90%
[4]; application rate 100 ppm
  activity (mortality): 100%

## O=C(NCc1ccc(N2CCC(c3cc(Cl)c(Cl)c(Cl)c3)(C(F)(F)F)C2O)nc1C(F)(F)F)C1CC1 (stereo not shown) [A3-16]
Ctenocephalides felis
  activity (mortality): 100%
[1]
  activity (larval mortality): 100%
[2]
  activity (mortality; infertile eggs): 100%
Musca domestica
  activity (mortality): 100%
[4]; application rate 20 ppm
  activity (mortality): 100%

## O=C(CC(F)(F)F)NCc1ccc(N2CCC(c3cc(Cl)c(Cl)c(Cl)c3)(C(F)(F)F)C2O)nc1C(F)(F)F (stereo not shown) [A3-18]
Ctenocephalides felis
  activity (mortality): 100%
[1]
  activity (larval mortality): 100%
[2]
  activity (mortality; infertile eggs): 100%
Musca domestica
  activity (mortality): 100%
[3]
  insecticidal activity (mortality): 90%
[4]; application rate 100 ppm
  activity (mortality): 100%

## O=C(NCc1ccc(N2CCC(c3cc(C(F)(F)F)cc(C(F)(F)F)c3)(C(F)(F)F)C2O)nc1C(F)(F)F)C1CC1 (stereo not shown) [A3-27]
Ctenocephalides felis
  activity (mortality): 100%
[1]
  activity (larval mortality): 100%
[2]
  activity (mortality; infertile eggs): 100%
Musca domestica
  activity (mortality): 100%
[4]; application rate 20 ppm
  activity (mortality): 100%

## O=C(NCc1ccc(N2CCC(c3cc(Cl)c(Cl)c(Cl)c3)(C(F)(F)F)C2O)nc1Br)C1CC1 (stereo not shown) [A3-115]
Ctenocephalides felis
  activity (mortality): 100%
[1]
  activity (larval mortality): 100%
[2]
  activity (mortality; infertile eggs): 100%
Musca domestica
  activity (mortality): 100%
[4]; application rate 20 ppm
  activity (mortality): 100%

## O=C(CC(F)(F)F)NCc1ccc(N2CCC(c3cc(Cl)c(Cl)c(Cl)c3)(C(F)(F)F)C2O)nc1Br (stereo not shown) [A3-117]
Ctenocephalides felis
  activity (mortality): 100%
[1]
  activity (larval mortality): 100%
[2]
  activity (mortality; infertile eggs): 100%
Musca domestica
  activity (mortality): 100%
[4]; application rate 20 ppm
  activity (mortality): 100%

## O=C(NCc1ccc(N2CCC(c3cc(C(F)(F)F)cc(C(F)(F)F)c3)(C(F)(F)F)C2O)nc1Cl)C1CC1 (stereo not shown) [A3-148]
Ctenocephalides felis
  activity (mortality): 100%
[1]
  activity (larval mortality): 100%
[2]
  activity (mortality; infertile eggs): 100%
Musca domestica
  activity (mortality): 100%
[4]; application rate 100 ppm
  activity (mortality): 100%

## O=C(NCc1ccc(N2CCC(c3cc(Cl)c(F)c(Cl)c3F)(C(F)(F)F)C2O)nc1Br)C1CC1 (stereo not shown) [A3-326]
Ctenocephalides felis
  activity (mortality): 100%
[1]
  activity (larval mortality): 100%
[2]
  activity (mortality; infertile eggs): 100%
Musca domestica
  activity (mortality): 100%
[3]
  insecticidal activity (mortality): 90%
[4]; application rate 100 ppm
  activity (mortality): 100%

## CC(=O)NCc1ccc(N2CCC(c3cc(Cl)cc(Cl)c3F)(C(F)(F)F)C2O)nc1C(F)(F)F (stereo not shown) [A3-344]
Ctenocephalides felis
  activity (mortality): 100%
[1]
  activity (larval mortality): 100%
[2]
  activity (mortality; infertile eggs): 100%
Musca domestica
  activity (mortality): 100%
[4]; application rate 100 ppm
  activity (mortality): 100%

## CCC(=O)NCc1cc(F)c(N2CCC(c3cc(C(F)(F)F)cc(C(F)(F)F)c3)(C(F)(F)F)C2O)nc1Cl (stereo not shown) [A3-378]
[3]
  insecticidal activity (mortality): 90%

## C=C(C)N(Cc1ccc(N2CCC(c3cc(Cl)c(Cl)c(Cl)c3)(C(F)(F)F)C2O)nc1C(F)(F)F)C(=O)C1CC1 (stereo not shown) [A3-424]
[3]
  insecticidal activity (mortality): 90%

## O=C(NCc1cnc(N2CCC(c3cc(Cl)cc(Cl)c3)(C(F)(F)F)C2O)nc1C(F)(F)F)C1CC1 (stereo not shown) [A4-5]
[3]
  insecticidal activity (mortality): 98%

## Cc1nc(N2CCC(c3cc(Cl)c(Cl)c(Cl)c3)(C(F)(F)F)C2O)ncc1CNC(=O)C1CC1 (stereo not shown) [A4-49]
[3]
  insecticidal activity (mortality): 90%

## CC(=O)NCc1cnc(N2CCC(c3cc(Cl)c(F)c(Cl)c3F)(C(F)(F)F)C2O)nc1C(F)(F)F (stereo not shown) [A4-111]
[3]
  insecticidal activity (mortality): 90%
[4]; application rate 100 ppm
  activity (mortality): 100%

## CCC(=O)NCc1cnc(N2CCC(c3cc(Cl)c(Cl)c(Cl)c3)(C(F)(F)F)C2O)cc1C(F)(F)F (stereo not shown) [A5-13]
Ctenocephalides felis
  activity (mortality): 100%
[1]
  activity (larval mortality): 100%
[2]
  activity (mortality; infertile eggs): 100%
Musca domestica
  activity (mortality): 100%
[4]; application rate 100 ppm
  activity (mortality): 100%

## O=C(NCc1cnc(N2CCC(c3cc(Cl)c(Cl)c(Cl)c3)(C(F)(F)F)C2O)cc1C(F)(F)F)C1CC1 (stereo not shown) [A5-16]
Ctenocephalides felis
  activity (mortality): 100%
[1]
  activity (larval mortality): 100%
[2]
  activity (mortality; infertile eggs): 100%
Musca domestica
  activity (mortality): 100%
[4]; application rate 100 ppm
  activity (mortality): 100%

## O=C(NCc1cnc(N2CCC(c3cc(Cl)c(F)c(Cl)c3F)(C(F)(F)F)C2O)cc1C(F)(F)F)C1CC1 (stereo not shown) [A5-82]
[1]
  activity (larval mortality): 100%
[2]
  activity (mortality; infertile eggs): 100%
Musca domestica
  activity (mortality): 100%
[3]
  insecticidal activity (mortality): 98%
[4]; application rate 100 ppm
  activity (mortality): 100%
